No constants are given. Whether binding was seen depends on the method and setting. Binding seen in cells or lysates may run through a third protein. Binding calls can cover weak binding; strength is not graded here.
Molecular target: GFP-tagged MK5/PRAK-Δex6 (exon 6 deletion mutant) (mouse) (UniProt O54992)
Assay: co-IP; GFP-MK5/PRAK or its Δex6 / Δex8 mutants co-expressed with His-ERK3 in HEK293 cells; lysates (10 mM Tris/HCl pH 7.5, 150 mM NaCl, 0.5 mM EDTA, 0.5% NP-40, then diluted) incubated with GFP nanobodies on M-270 epoxy magnetic beads, 1 h at 4°C; washes up to 300 mM NaCl; ERK3 seen by Coomassie stain and by Western blot against ERK3

By UniProt entry, the sequences of proteins in these tests, tags left out. Where a name states a change or a piece, a line headed by the entry shows the natural chain unless it says otherwise.
UniProt O54992: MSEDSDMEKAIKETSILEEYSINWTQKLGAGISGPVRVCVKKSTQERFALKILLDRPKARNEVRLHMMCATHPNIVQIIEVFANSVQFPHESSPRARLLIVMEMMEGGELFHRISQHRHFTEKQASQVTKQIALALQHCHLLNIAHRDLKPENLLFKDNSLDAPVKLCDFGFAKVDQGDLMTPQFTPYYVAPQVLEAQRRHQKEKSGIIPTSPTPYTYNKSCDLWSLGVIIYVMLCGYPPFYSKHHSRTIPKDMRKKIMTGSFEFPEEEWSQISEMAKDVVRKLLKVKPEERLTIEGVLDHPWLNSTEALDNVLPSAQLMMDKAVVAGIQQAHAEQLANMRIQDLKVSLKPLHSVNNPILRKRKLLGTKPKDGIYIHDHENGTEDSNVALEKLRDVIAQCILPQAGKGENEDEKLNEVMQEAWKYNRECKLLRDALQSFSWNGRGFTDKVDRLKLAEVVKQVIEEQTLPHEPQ
UniProt Q16659: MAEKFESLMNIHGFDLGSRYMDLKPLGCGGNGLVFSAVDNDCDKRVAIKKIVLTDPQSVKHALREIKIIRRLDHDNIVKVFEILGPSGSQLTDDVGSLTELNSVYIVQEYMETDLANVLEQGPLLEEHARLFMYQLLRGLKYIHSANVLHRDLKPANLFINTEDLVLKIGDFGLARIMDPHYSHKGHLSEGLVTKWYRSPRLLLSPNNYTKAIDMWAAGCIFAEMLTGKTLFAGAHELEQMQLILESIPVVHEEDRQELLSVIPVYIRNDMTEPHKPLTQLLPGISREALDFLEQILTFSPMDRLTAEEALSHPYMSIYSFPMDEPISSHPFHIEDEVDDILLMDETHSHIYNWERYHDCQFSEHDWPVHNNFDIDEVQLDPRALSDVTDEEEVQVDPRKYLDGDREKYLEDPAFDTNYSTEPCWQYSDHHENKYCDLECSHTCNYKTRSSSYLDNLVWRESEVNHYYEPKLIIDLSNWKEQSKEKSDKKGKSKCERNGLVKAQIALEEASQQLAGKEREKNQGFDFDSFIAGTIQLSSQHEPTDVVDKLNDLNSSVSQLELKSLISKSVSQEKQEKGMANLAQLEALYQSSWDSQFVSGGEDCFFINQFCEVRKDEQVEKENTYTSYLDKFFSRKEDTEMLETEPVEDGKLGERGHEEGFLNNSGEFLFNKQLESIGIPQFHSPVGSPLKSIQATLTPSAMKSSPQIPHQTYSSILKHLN

- binding: binds
Substance: His-ERK3 (from UniProt Q16659 1-721) (enzyme)
